In patent EP4755449A2:
Results are given in words; binding and its absence hold for the method and conditions named. Some results given as binding are weak or reduced against the parent protein; the word gives no strength. Tags and fused reporters may be left off the sequences shown.

What was measured:
Experiment in all cases: Western blot
[1] = molecular target: T1, GST-hMSTN 61-160aa (human) (UniProt O14793)
T1 sequence: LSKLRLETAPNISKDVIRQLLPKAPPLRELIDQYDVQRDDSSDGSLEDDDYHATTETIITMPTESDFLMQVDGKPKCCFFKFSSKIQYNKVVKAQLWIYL

[2] = molecular target: T2, GST-hMSTN 21-120aa (human) (UniProt O14793)
T2 sequence: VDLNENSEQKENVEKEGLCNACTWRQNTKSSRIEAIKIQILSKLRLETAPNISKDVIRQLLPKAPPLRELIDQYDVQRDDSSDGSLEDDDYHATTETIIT

[3] = molecular target: T3, GST-hMSTN 81-180aa (human)
T3 sequence: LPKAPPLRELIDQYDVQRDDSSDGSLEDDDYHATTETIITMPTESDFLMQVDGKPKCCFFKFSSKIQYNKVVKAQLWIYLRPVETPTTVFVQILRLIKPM

[4] = molecular target: T4, GST-hMSTN 41-140aa (human) (UniProt O14793)
T4 sequence: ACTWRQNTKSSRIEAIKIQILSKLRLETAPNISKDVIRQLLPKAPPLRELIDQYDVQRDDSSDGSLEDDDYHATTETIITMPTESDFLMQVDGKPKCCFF

B1: MST1032 (as used in Example 26) (antibody, V domains shown)
VH: QSLEESGGRLVTPGGSLTVTCRVSGIDLSSYDISWVRQAPGKGLEWIGIISYAGSTYYASWAKGRFTISKTSTTVDLKMTSLTTEDTATYFCARGVPAYSTGGDLWGPGTLVTVSS
VL: AQVLTQTASSVSAAVGGTVTINCQSSQSVYDNNWLSWFQQKPGQPPKLLIYWASTLASGVPSRFKGSGSGTQFTLTISDLECDDAATYYCAGGYGGGLYAFGGGTKVEIK
[1]
  binding: binds
[2]
  binding: binds
[3]
  binding: binds
[4]
  binding: binds

B2: MST1538 (antibody, human IgG1, kappa, V domains shown)
VH: QSLEESGGGLVKPGGTLTLTCKASGIDFSSYYYMCWVRQAPGKGLEWIACIYAGISGSTYYASWAKGRFTISKTSSTTVTLQMTSLTAADTATYFCARDPYHFDYGSLWGPGTLVTVSS
VL: ALVMTQTPASVSAAVGGTVTINCQASQSVYGGNELSWYQQEPGQPPKLLIYSASKLASGVPSRFKGSGSGTQFTLTISGVQCDDAAAYYCAGYRTYSDDDNAFGGGTKVEIKR
[2]
  binding: binds
[4]
  binding: binds

B3: MST1572 (antibody, human IgG1, kappa, V domains shown)
VH: QSVEESGGRLVTPGTPLTLTCTVSGFSLSSYAMSWVRQAPGKGLEWIGIIYGVGSTYYASWAKGRFTISKTSTTVDLKIASPTTEDTATYFCARDDYGWGYTNLWGPGTLVTVSS
VL: QVLTQTPSSVSAAVGGTVTINCQSSQSVYNNNYLAWFQQKPGQPPKLLIYDASKLASGVPSRFKGSGSGTQFTLTISGVQCDDAATYYCQGSYYSSGWYRAFGGGTKVEIKR
[2]
  binding: binds
[4]
  binding: binds

B4: MST1573 (antibody, human IgG1, kappa, V domains shown)
VH: QSVEESGGRLVTPGTPLTLTCTVSGIDLSSSSMIWVRQAPGEGLKYIGFISKSGYTYYASWAKGRFTISKTSTTVDLKITSPTTEDTATYFCARGGYSGDWDYFTLWGPGTLVTVSS
VL: DIVMTQTPASVEAAVGGTVTIKCQASESIGNALAWYQQKPGQPPKLLIYGAFNLESGVPSRFRGSGSGTEYTLTISDLECDDAATYYCQGYFWSSSTIYAFWAFGGGTKVEIKR
[2]
  binding: binds
